# Reference: the supplement of paper PMC4604168 (melanoma cell lines)
# The list shows a part of the results. Single values are uncertain, as repeats are few or missing.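 Cells were imaged in 1,536-well plates, and nuclei stained with an antibody against cleaved PARP were counted against all DNA-stained nuclei to give the apoptosis fraction. Screening doses were chosen to leave most cells alive, and resting and induced cleaved-PARP levels differ strongly between cell lines.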
# What was measured:
# Assay in all cases: cleaved PARP positive nuclei fraction relative to DMSO control; melanoma cells; higher = more apoptosis
# Details in all cases: library dose: low library concentration; 72 h
# [1] = test system: 501Mel
# [2] = test system: A101D
# [3] = test system: A2058
# [4] = test system: A375
# [5] = test system: C32
# [6] = test system: CBRC008 (line from a melanoma biopsy)
# [7] = test system: CBRC014 (line from a melanoma biopsy)
# [8] = test system: CBRC016 (line from a melanoma biopsy)
# [9] = test system: CBRC017 (line from a melanoma biopsy)
# [10] = test system: CBRC034 (line from a melanoma biopsy)
# [11] = test system: COLO792
# [12] = test system: COLO800
# [13] = test system: COLO829
# [14] = test system: G361
# [15] = test system: IPC-298
# [16] = test system: IST-MEL1
# [17] = test system: LB2518-MEL
# [18] = test system: LOXIMVI
# [19] = test system: MEL-HO
SMILES,cleaved PARP positive nuclei fraction [1] [%],cleaved PARP positive nuclei fraction [2] [%],cleaved PARP positive nuclei fraction [3] [%],cleaved PARP positive nuclei fraction [4] [%],cleaved PARP positive nuclei fraction [5] [%],cleaved PARP positive nuclei fraction [6] [%],cleaved PARP positive nuclei fraction [7] [%],cleaved PARP positive nuclei fraction [8] [%],cleaved PARP positive nuclei fraction [9] [%],cleaved PARP positive nuclei fraction [10] [%],cleaved PARP positive nuclei fraction [11] [%],cleaved PARP positive nuclei fraction [12] [%],cleaved PARP positive nuclei fraction [13] [%],cleaved PARP positive nuclei fraction [14] [%],cleaved PARP positive nuclei fraction [15] [%],cleaved PARP positive nuclei fraction [16] [%],cleaved PARP positive nuclei fraction [17] [%],cleaved PARP positive nuclei fraction [18] [%],cleaved PARP positive nuclei fraction [19] [%]
"Nc1ncn([C@H]2C[C@H](O)[C@@H](CO)O2)c(=O)n1 [decitabine] + Clc1ccc(Nc2nnc(Cc3ccncc3)c3ccccc23)cc1 [vatalanib] (first compound 0.1 µM, partner dose 2 µM)",147,59.3,207,113,85.9,288,110,387,98.9,131,112,106,84.6,305,126,76.6,104,72.5,136
"C=C(c1ccc(C(=O)O)cc1)c1cc2c(cc1C)C(C)(C)CCC2(C)C [Bexarotene] + CCCS(=O)(=O)Nc1ccc(F)c(C(=O)c2c[nH]c3ncc(Cl)cc23)c1F [PLX4720] (first compound 2 µM, partner dose 0.08 µM)",101,159,47.8,102,76.8,264,111,391,207,69.8,177,151,61.9,110,88.8,135,92.6,28.2,136
"C[C@@H](Oc1cc(-c2cnn(C3CCNCC3)c2)cnc1N)c1c(Cl)ccc(F)c1Cl [Crizotinib] + C[C@]1(c2nc3c(C(N)=O)cccc3[nH]2)CCCN1 [Veliparib] (first compound 0.2 µM, partner dose 1.4 µM)",139,57.7,261,171,78.7,96.8,97.3,21,88.7,63.7,116,292,169,97.9,333,84.8,78.6,149,134
"Nc1nc(F)nc2c1ncn2[C@@H]1O[C@H](CO)[C@@H](O)[C@@H]1O [fludarabine] + Cc1nc(Nc2ncc(C(=O)Nc3c(C)cccc3Cl)s2)cc(N2CCN(CCO)CC2)n1 [dasatanib] (first compound 0.2 µM, partner dose 0.004 µM)",9830,279,246,2990,91,99.2,118,47.7,106,145,153,146,174,47.5,141,279,58.5,248,53
"Cn1c(=O)n(-c2ccc(C(C)(C)C#N)cc2)c2c3cc(-c4cnc5ccccc5c4)ccc3ncc21 + C[C@]1(c2nc3c(C(N)=O)cccc3[nH]2)CCCN1 [Veliparib] (first compound 0.004 µM, partner dose 1.4 µM)",142,248,63.4,332,179,138,92,40,95,91.2,64.3,134,93.5,122,141,214,83.8,275,88.6
"C=C(c1ccc(C(=O)O)cc1)c1cc2c(cc1C)C(C)(C)CCC2(C)C [Bexarotene] + Clc1ccc(Nc2nnc(Cc3ccncc3)c3ccccc23)cc1 [vatalanib] (first compound 2 µM, partner dose 2 µM)",61.9,42,31.9,94.4,138,393,130,249,455,72.1,111,128,54,126,45.7,136,98.8,143,136
"CCCS(=O)(=O)Nc1ccc(F)c(C(=O)c2c[nH]c3ncc(Cl)cc23)c1F + C#Cc1cccc(Nc2ncnc3cc(OCCOC)c(OCCOC)cc23)c1 [erlotinib] (first compound 0.08 µM, partner dose 0.8 µM)",58.7,159,141,205,70.6,37.1,101,40.7,88.6,70.7,101,134,84.4,157,94.2,108,100,50.4,148
"CNC(=O)c1cc(Oc2ccc(NC(=O)Nc3ccc(Cl)c(C(F)(F)F)c3)cc2)ccn1 [sorafenib] + Cn1nnc2c(C(N)=O)ncn2c1=O [temozolomide] (first compound 0.4 µM, partner dose 2 µM)",176,42.5,71.3,21.3,76.9,90.8,87.1,84.7,115,130,148,103,94.7,71,134,164,103,142,131
